Data reported in paper PMC6120983, “Chimeric Proteins Containing MAP-1 and Functional Domains of C4b-Binding Protein Reveal Strong Complement Inhibitory Capacities” (Frontiers in Immunology, 2018).
These are yes or no findings as the source states them, for the method shown.

Amino acid sequences for entries named in this document (tags omitted). Residues count along the entry.
UniProt Q9BWP8, residues 26-271: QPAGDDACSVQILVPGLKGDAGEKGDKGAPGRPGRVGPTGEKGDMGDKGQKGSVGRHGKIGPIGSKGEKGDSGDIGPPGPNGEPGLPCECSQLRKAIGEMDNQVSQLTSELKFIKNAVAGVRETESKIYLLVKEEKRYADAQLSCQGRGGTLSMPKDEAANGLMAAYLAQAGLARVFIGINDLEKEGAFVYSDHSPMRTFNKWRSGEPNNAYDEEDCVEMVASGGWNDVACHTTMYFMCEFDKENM
UniProt P11226, residues 21-248: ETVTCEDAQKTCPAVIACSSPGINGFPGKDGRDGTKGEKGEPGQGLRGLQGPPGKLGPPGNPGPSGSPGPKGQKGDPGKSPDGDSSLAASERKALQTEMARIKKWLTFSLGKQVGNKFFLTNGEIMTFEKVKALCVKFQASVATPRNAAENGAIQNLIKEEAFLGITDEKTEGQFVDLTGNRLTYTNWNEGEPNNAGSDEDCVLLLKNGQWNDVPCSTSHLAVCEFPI

Key:
recombinant CL-11 = molecular target: T1, recombinant CL-11 (UniProt Q9BWP8 26-271); experiment: ELISA; as a1 but in TBS/Tween/EDTA (10 mM EDTA); both purified
T1 construct: collectin-11 (CL-11, CL-K1); Held on mannan-coated wells in the ELISA; also called rCL-11; collectin-11; source: produced in house

recombinant MBL = recombinant MBL (UniProt P11226 21-248); experiment: as above

B1: recombinant MAP-1 (natural protein, human, UniProt P48740-3 20-380, looked up)
chain: HTVELNNMFGQIQSPGYPDSYPSDSEVTWNITVPDGFRIKLYFMHFNLESSYLCEYDYVKVETEDQVLATFCGRETTDTEQTPGQEVVLSPGSFMSITFRSDFSNEERFTGFDAHYMAVDVDECKEREDEELSCDHYCHNYIGGYYCSCRFGYILHTDNRTCRVECSDNLFTQRTGVITSPDFPNPYPKSSECLYTIELEEGFMVNLQFEDIFDIEDHPEVPCPYDYIKIKVGPKVLGPFCGEKAPEPISTQSHSVLILFHSDNSGENRGWRLSYRAAGNECPELQPPVHGKIEPSQAKYFFKDQVLVSCDTGYKVLKDNVEMDTFQIECLKDGTWSNKIPTCKKNEIDLESELKSEQVTE
Which binding (recombinant CL-11) does the source give for B1 here?
Its binding is “no binding (condition: with 10 mM EDTA (up to 13.5 nM))”.

What about the binding (recombinant MBL) of the same binder?
Its binding is “no binding (condition: with 10 mM EDTA (up to 13.5 nM))”.
